The source of these data is publication PMC10119424.

By UniProt entry, the sequences of proteins in these tests, tags left out.
UniProt Q99418: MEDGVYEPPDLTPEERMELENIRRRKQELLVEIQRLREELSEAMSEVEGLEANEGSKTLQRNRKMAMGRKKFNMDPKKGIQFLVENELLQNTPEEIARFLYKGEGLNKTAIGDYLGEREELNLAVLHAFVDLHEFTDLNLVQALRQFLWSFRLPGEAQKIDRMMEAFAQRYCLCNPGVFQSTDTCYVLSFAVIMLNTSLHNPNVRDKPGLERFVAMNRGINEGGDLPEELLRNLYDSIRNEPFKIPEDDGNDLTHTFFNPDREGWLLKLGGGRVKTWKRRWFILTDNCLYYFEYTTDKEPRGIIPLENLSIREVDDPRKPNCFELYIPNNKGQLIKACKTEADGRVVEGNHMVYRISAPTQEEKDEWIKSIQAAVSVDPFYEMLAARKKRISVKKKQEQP
UniProt Q2KI41: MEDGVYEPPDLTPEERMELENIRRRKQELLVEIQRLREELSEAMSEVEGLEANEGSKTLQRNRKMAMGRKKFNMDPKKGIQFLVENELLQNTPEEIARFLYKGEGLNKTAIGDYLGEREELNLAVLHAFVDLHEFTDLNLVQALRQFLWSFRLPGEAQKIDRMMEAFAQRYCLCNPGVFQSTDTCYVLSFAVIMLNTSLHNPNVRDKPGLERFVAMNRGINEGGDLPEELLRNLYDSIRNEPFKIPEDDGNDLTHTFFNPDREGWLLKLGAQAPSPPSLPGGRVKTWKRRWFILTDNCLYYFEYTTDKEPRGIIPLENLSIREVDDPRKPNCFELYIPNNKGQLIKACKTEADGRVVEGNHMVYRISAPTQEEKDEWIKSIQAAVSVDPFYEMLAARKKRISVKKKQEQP
UniProt P63081: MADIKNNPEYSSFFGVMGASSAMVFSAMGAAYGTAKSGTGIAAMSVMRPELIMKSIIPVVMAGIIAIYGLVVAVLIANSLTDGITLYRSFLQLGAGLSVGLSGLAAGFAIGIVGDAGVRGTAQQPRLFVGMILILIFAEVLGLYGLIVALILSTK
UniProt P25286: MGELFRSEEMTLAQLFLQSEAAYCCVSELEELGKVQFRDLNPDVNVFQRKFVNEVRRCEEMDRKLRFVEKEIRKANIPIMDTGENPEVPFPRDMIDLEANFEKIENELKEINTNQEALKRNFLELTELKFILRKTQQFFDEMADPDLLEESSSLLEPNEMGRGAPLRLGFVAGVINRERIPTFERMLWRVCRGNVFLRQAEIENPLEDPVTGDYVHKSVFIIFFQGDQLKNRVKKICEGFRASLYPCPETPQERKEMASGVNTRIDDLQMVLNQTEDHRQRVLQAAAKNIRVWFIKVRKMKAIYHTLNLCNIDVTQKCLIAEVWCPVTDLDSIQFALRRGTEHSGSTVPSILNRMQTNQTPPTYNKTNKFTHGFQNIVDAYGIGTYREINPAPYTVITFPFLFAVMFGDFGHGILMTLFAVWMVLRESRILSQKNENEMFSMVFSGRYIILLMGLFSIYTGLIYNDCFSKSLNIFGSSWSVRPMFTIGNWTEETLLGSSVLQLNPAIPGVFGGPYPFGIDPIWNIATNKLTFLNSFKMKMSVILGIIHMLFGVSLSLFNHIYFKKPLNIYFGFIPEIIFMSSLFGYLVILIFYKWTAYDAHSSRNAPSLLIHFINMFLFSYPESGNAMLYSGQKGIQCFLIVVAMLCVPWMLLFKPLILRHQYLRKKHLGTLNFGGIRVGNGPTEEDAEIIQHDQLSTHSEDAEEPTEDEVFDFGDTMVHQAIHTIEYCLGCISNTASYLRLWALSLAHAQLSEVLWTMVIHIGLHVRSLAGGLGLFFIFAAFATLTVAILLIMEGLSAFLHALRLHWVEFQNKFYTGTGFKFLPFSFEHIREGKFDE
UniProt Q29466: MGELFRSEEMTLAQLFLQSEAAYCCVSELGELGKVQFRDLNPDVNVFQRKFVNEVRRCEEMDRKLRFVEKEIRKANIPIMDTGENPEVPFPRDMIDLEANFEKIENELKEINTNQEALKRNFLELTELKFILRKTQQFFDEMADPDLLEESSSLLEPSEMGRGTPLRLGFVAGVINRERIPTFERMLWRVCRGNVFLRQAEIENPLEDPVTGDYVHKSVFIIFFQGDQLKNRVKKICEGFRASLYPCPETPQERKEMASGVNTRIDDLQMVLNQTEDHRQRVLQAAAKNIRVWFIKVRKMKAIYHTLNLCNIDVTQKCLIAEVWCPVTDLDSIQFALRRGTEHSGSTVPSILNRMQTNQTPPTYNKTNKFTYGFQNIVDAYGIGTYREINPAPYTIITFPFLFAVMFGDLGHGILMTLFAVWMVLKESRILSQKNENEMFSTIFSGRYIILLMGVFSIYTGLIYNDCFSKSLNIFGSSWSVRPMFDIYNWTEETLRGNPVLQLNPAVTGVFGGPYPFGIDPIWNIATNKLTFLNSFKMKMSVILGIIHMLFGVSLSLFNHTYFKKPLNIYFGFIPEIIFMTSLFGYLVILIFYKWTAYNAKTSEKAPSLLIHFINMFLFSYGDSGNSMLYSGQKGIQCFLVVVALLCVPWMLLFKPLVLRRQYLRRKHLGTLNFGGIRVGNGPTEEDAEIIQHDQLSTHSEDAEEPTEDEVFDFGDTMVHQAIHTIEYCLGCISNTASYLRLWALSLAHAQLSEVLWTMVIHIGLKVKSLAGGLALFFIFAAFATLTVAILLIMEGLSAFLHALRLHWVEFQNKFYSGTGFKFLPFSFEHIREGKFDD
UniProt P62332: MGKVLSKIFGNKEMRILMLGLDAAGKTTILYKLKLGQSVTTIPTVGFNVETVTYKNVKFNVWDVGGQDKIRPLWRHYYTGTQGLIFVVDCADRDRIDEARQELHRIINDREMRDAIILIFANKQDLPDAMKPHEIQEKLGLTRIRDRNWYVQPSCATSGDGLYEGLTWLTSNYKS

Results are given in words; binding and its absence hold for the method and conditions named. Binding seen in cells or lysates may run through a third protein. Some results given as binding are weak or reduced against the parent protein; the word gives no strength.

The target of one test is ARNO-ShadowG (UniProt Q99418). The test can be described thus: FRET or BRET; FLIM-FRET in live bovine chromaffin cells expressing V0a1-NowGFP (donor) and ARNO-ShadowG (dark acceptor); donor lifetime before and at different times after stimulation with nicotine; two-photon excitation at 930 nm, 37°C, Locke's solution, 60 s acquisition, one-component exponential fit. On the technique in general: In BRET a luciferase serves as donor, and the signal depends on an acceptor being close.

Test [1] deals with Arf nucleotide-binding site opener (ARNO) (endogenous, bovine chromaffin cells) (bovine (endogenous in bovine chromaffin cells)) (UniProt Q2KI41). Nature of the test: co-IP; endogenous proteins from chromaffin cells extract, resting and after cell stimulation; data not shown.
Test [2] concerns the target V0c subunit of the V-ATPase (PC12 cells) (UniProt P63081). Nature of the test: co-IP; in PC12 cells; data not shown.

Take V0a1-NowGFP (from UniProt P25286 1-838): in the test with ARNO-ShadowG, the binding result is given as “binds”.

“V0a1 subunit of the V-ATPase (endogenous, bovine chromaffin cells) (from UniProt Q29466 1-838)”: the binding entry in test [1] was “binds”.

As for “Arf6 GTPase (PC12 cells) (from UniProt P62332 1-175)”, the binding entry in test [2] is recorded as “binds”.
